PubChem BioAssay AID1259308 | NCATS | 2017

Assay: 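Genes whose loss raises luciferase production in HEK293 cells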 (primary screen)
System: human HEK293 embryonic kidney cells stably expressing firefly luciferase (HEK-CMV-Luc2-Hygro)
Reagents: single siRNA against human genes, 0.8 pmol siRNA per well
Timing: 72 h
Detection: 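Reporter luminescence and viable-cell signal on separate replicate plates, given as percent of non-targeting control and median/MAD z-scores, plus per-cell luciferase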
Reading the numbers: total luciferase, z-score and total luciferase, % of control: higher = more reporter protein produced; luciferase per cell, z-score: higher = more reporter output per viable cell; viable cells, % of control: higher = more viable cells
Hit rule: 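An siRNA counts as active if its total luciferase robust z-score exceeds 3; genes with two or more such siRNAs out of three were retested with fresh siRNAs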
Meaning of the calls: active = raised luciferase; inactive = no rise
In all, the deposit lists about 59,000 reagents; below is an unselected part. Over the whole deposit, about 1,510 (2.6%) are marked active. 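Calls use total luciferase alone and ignore viability, so some active siRNAs may act by altering cell number.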 Entries without a mark were called inactive. Reagents against one gene are numbered here. Reagent sequences are not shown.

gene	reagent	total luciferase, z-score	total luciferase, % of control	luciferase per cell, z-score	viable cells, % of control
SETDB1	1	0.514	92.1	-0.107	106
SETDB1	2	1.6	114	1.21	92.4
SETDB1	3	1.32	108	0.78	98.3
RNASE2CP	1	0.107	84	-0.34	103
RNASE2CP	2	1.72	116	1.3	92.2
RNASE2CP	3	-0.0915	80.1	-0.192	94.1
LRP11	1	-1.06	60.7	-0.255	72.6
LRP11	2	0.551	92.8	0.428	92.7
LRP11	3	-1.63	49.4	-0.913	70.2
HELZ	1	0.482	91.5	0.0237	102
HELZ	2	-0.529	71.4	-0.817	98.9
HELZ	3	-0.0156	81.6	0.435	81.3
ACSBG2	1	2.15	125	1.2	101
ACSBG2	2	1.24	106	0.239	112
ACSBG2	3	0.56	93	0.176	99.2
TKTL2	1	-1.11	59.7	-0.517	76.5
TKTL2	2	0.693	95.7	0.292	99
TKTL2	3	-0.0498	80.9	-0.462	102
SCN7A	1	-0.408	73.8	-0.834	103
SCN7A	2	0.859	99	1.47	75.1
SCN7A	3	-0.527	71.4	-0.842	99.6

9 of these entries, set out differently:
| gene | reagent | total luciferase, z-score | total luciferase, % of control | luciferase per cell, z-score | viable cells, % of control |
| --- | --- | --- | --- | --- | --- |
| LRP11 | 3 | -1.63 | 49.4 | -0.913 | 70.2 |
| HELZ | 1 | 0.482 | 91.5 | 0.0237 | 102 |
| HELZ | 2 | -0.529 | 71.4 | -0.817 | 98.9 |
| HELZ | 3 | -0.0156 | 81.6 | 0.435 | 81.3 |
| ACSBG2 | 1 | 2.15 | 125 | 1.2 | 101 |
| ACSBG2 | 2 | 1.24 | 106 | 0.239 | 112 |
| ACSBG2 | 3 | 0.56 | 93 | 0.176 | 99.2 |
| TKTL2 | 1 | -1.11 | 59.7 | -0.517 | 76.5 |
| TKTL2 | 2 | 0.693 | 95.7 | 0.292 | 99 |

The listing continues.
gene	reagent	total luciferase, z-score	total luciferase, % of control	luciferase per cell, z-score	viable cells, % of control
SCGN	1	0.693	95.7	0.735	88.1
SCGN	2	-0.423	73.5	0.00156	82.1
SCGN	3	3	141	3.38	64.9
GJB6	1	-0.676	68.4	-0.603	89.7
GJB6	2	0.157	85	-0.306	103
GJB6	3	-0.327	75.4	-0.595	98.5
LMLN	1	0.589	93.6	0.943	81.6
LMLN	2	-0.529	71.4	-0.825	99.1
LMLN	3	-2.01	41.9	-0.421	52.3
HEPACAM2	1	-0.319	75.5	0.586	72.3
HEPACAM2	2	0.757	97	0.841	86.8
HEPACAM2	3	1.08	103	0.996	88.8
HACL2	1	0.814	98.1	1.22	79.5
HACL2	2	4.78 (active)	177	2.27	109
HACL2	3	0.22	86.3	0.145	92.8
DCDC2	1	-1.42	53.6	-1.16	81.1
DCDC2	2	0.126	84.4	0.553	81.5
DCDC2	3	0.249	86.8	0.252	90.8
GALNT7	1	-1.05	61	-1.24	94.7
GALNT7	2	-0.164	78.6	-0.0737	89.6
GALNT7	3	0.861	99	0.573	95.1
TRIM15	1	-0.203	77.8	-0.26	93.1
TRIM15	2	-0.226	77.4	-0.228	91.8
TRIM15	3	-0.612	69.7	-0.338	85.1
FAM47B	1	0.225	86.4	1.8	60.1
FAM47B	2	0.307	88	0.918	77.2
FAM47B	3	-0.747	67	-1.41	109
CCR2	1	-0.532	71.3	-1.06	105
CCR2	2	3.22 (active)	146	3.06	72.8
CCR2	3	-0.236	77.2	-0.346	94.5
CCR2	4	-0.988	62.2	-0.261	74.5
CCR2	5	0.116	84.2	1.15	69.5
CCR2	6	0.579	93.4	1.35	73.2
LINC00636	1	0.074	83.4	1.52	62.4
LINC00636	2	0.587	93.6	0.379	94.6
LINC00636	3	-0.573	70.5	-0.143	81.8
